Binding data for one substance are collected here from article doi:10.1101/2021.02.18.431788.

The chains behind the UniProt entries cited, without tags or fusion partners. Where a name states a change or a piece, a line headed by the entry shows the natural chain unless it says otherwise. A line that says so, or that is headed by a name, gives the form on record, which may keep a tag or linker.
Neurofibromin (NF1), full length, isoform 1 (P21359-2, form named): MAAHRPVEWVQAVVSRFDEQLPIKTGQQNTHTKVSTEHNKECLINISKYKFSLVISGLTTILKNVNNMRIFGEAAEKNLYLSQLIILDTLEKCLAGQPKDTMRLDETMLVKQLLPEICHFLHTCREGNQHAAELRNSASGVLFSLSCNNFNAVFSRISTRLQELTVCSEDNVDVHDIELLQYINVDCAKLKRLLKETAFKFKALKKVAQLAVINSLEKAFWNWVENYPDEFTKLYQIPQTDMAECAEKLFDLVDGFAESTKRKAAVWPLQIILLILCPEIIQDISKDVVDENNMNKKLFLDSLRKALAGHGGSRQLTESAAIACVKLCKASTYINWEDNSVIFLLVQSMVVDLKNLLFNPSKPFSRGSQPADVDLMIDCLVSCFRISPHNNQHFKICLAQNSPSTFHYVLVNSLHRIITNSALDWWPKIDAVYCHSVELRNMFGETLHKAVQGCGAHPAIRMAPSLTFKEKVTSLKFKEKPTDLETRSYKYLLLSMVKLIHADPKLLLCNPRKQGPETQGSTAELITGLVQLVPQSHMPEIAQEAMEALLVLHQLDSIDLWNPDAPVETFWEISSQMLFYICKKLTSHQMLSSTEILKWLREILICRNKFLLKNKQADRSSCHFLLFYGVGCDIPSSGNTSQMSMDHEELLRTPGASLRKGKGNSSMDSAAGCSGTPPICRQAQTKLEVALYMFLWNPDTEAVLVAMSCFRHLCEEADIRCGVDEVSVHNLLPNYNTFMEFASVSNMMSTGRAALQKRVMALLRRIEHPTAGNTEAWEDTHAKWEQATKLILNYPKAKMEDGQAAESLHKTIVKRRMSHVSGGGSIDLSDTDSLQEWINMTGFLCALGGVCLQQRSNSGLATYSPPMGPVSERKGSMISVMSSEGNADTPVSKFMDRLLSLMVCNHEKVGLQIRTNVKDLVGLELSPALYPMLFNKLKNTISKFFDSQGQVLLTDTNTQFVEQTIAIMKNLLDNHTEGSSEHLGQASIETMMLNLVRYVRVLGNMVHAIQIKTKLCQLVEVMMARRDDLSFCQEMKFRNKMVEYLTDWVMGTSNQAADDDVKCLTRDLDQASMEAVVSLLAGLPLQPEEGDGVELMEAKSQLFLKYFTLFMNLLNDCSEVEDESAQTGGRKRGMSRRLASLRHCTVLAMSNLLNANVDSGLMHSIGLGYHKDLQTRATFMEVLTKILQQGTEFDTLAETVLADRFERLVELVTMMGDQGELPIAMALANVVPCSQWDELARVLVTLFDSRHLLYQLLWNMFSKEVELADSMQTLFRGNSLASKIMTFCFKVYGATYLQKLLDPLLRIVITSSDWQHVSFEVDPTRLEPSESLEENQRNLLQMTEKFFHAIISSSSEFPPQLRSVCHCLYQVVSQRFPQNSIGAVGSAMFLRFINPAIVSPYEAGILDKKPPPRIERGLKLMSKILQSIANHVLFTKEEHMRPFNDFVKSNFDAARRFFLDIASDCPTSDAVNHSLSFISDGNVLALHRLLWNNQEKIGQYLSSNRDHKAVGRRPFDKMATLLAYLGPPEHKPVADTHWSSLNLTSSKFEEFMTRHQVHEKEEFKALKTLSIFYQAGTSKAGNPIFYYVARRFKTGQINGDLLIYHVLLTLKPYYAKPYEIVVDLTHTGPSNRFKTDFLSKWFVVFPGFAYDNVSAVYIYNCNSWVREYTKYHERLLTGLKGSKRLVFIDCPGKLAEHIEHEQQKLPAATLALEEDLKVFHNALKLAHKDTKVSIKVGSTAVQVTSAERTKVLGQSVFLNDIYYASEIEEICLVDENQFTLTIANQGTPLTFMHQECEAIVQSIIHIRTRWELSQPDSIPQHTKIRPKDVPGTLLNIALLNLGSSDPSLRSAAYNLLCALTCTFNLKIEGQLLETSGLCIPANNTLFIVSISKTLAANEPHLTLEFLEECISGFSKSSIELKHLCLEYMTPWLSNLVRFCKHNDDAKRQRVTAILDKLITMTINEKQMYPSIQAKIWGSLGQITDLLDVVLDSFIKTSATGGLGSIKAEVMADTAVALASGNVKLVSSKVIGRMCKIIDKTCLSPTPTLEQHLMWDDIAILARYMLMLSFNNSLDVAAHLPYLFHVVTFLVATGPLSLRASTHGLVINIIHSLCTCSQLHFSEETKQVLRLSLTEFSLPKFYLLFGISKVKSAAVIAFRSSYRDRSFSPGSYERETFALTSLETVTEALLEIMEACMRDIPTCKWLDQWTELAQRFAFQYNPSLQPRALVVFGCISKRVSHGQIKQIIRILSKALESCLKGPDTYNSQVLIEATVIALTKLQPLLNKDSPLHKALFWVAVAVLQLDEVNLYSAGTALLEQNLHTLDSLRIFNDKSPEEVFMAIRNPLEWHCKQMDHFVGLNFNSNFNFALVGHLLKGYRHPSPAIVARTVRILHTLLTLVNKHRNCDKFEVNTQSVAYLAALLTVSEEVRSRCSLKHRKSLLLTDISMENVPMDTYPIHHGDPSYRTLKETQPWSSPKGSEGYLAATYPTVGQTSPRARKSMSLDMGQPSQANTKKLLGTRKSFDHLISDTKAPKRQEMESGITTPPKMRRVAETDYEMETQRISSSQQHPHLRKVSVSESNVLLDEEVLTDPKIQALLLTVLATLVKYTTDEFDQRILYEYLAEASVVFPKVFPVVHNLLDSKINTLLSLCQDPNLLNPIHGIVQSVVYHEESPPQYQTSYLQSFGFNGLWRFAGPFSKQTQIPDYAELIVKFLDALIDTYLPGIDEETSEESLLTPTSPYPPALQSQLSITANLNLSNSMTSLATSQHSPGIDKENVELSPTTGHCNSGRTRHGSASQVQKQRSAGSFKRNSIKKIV

These are yes or no findings as the source states them, for the method shown. Some results given as binding are weak or reduced against the parent protein; the word gives no strength.

In the assay the target is Neurofibromin (NF1), full length, isoform 1 (human) (UniProt P21359). Put plainly: cryo-EM structure.

Turning to “Neurofibromin (NF1), full length, isoform 1 (from UniProt P21359-2 1-2818)”, the binding result is listed as “binds”.
